Measurements published in publication PMC3834827, “Crystal structure of the DdrB/ssDNA complex from Deinococcus radiodurans reveals a DNA binding surface involving higher-order oligomeric states” (Nucleic Acids Research, 2013).
Changes are numbered by the printed parent chain. The comparison behind a weaker result is the experiment's own reference, which may not be listed here. Protein sequences can lack the tags named with them. For part of these data: For at least one entry, the source does not settle the construct or the ends of the probe. For part of these data: At least one verdict was read from the data and is not stated in words by the source.

Experiments:
Assay in all cases: fluorescence anisotropy
Details in all cases: 3 uM pentamer, range for all nine mutants; FP: 20 mM Tris pH 8.0, 100 mM KCl, 200 nM DNA; recombinant protein; residues 1-144; protein details: N-terminal 6His; label: 5' 6-FAM; single-stranded DNA
[1] = target: T1, DdrB R64A (Deinococcus radiodurans) (UniProt Q9RY80)
T1 sequence (looked up): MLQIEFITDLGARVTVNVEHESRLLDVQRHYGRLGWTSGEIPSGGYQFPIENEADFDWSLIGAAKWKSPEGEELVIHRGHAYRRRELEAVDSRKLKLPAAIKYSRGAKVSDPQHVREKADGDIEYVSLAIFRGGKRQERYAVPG

[2] = target: T2, DdrB R132A (Deinococcus radiodurans) (UniProt Q9RY80)
T2 sequence (looked up): T1 sequence (looked up) with A64R, R132A

[3] = target: T3, DdrB K94A (Deinococcus radiodurans) (UniProt Q9RY80)
T3 sequence (looked up): T1 sequence (looked up) with A64R, K94A

[4] = target: T4, DdrB W66A (Deinococcus radiodurans) (UniProt Q9RY80)
T4 sequence (looked up): T1 sequence (looked up) with A64R, W66A

[5] = target: T5, DdrB K135A (Deinococcus radiodurans) (UniProt Q9RY80)
T5 sequence (looked up): T1 sequence (looked up) with A64R, K135A

[6] = target: T6, DdrB K108A (Deinococcus radiodurans) (UniProt Q9RY80)
T6 sequence (looked up): T1 sequence (looked up) with A64R, K108A

[7] = target: T7, DdrB R85A (Deinococcus radiodurans) (UniProt Q9RY80)
T7 sequence (looked up): T1 sequence (looked up) with A64R, R85A

[8] = target: T8, DdrB R83A (Deinococcus radiodurans) (UniProt Q9RY80)
T8 sequence (looked up): T1 sequence (looked up) with A64R, R83A

[9] = target: T9, DdrB K102A (Deinococcus radiodurans) (UniProt Q9RY80)
T9 sequence (looked up): T1 sequence (looked up) with A64R, K102A

Measured: binding result

TTTTTTTTTTTTTTTTTTTT [20b poly dT]
binds more weakly: all assays above
